{"sequences": {"note": "Amino acid sequences for entries named in this document (tags omitted).", "UniProt P07947, whole entry, looked up": "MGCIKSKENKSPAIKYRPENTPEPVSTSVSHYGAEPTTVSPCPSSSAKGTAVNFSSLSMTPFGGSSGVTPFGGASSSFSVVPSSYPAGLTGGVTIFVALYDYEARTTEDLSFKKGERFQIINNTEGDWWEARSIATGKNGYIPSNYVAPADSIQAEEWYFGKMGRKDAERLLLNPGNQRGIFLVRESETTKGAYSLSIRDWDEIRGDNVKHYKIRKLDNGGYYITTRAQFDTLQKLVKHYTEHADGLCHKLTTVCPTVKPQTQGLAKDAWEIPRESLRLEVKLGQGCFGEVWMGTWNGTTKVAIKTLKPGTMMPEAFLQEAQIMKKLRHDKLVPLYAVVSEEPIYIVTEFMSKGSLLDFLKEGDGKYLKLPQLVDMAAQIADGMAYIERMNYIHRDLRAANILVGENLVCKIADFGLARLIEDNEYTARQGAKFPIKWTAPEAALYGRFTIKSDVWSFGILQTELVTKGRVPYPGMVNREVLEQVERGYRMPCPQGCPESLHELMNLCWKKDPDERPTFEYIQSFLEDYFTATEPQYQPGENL"}, "source": "PubChem BioAssay (NCATS)", "note": "Inconclusive means that the source gave no clear call. Such entries were picked first, then a sample of the others. Where the call is inconclusive, the potency comes from a doubtful curve fit. Calls of active or inactive are those of the source. Calls come from the whole dose curve; as a rule, active = well fitted curve in the direction sought with a large enough effect; inconclusive = small, poorly fitted or top-dose-only effect, or another doubt; inactive = no such curve, though single readings can be large; an effect the other way counts as inactive or inconclusive.", "data": [{"test_system": "not listed separately", "test": "Cell Proliferation Assay against the TMD8 Cell Line (Caspase readout at 16 hrs) (AID 651712); note: potency is the fitted concentration of half-maximal effect", "details": "TMD8 lymphoma cells, caspase activation luminescence; series mostly up to 46.1 µM", "method_in_brief": "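16 h, 37 °C, TMD8 (500 cells/well), RPMI/5% FBS no phenol red; Caspase-Glo 3/7, 15 min RT, luminescence; %act: DMSO 0, bortezomib 9.2 uM final 100.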", "values": [{"compound": "O=C(O)CCC1CCC(c2cc(F)ccc2F)(S(=O)(=O)c2ccc(Cl)cc2)CC1", "note": "(stereo unspecified)", "Potency": "inactive"}, {"compound": "CCC(C)n1ncn(-c2ccc(N3CCN(c4ccc(OC[C@H]5CO[C@](Cn6cncn6)(c6ccc(Cl)cc6Cl)O5)cc4)CC3)cc2)c1=O", "note": "(stereo partly specified)", "Potency": "inactive"}, {"compound": "Cn1cnc2c(F)c(Nc3ccc(Br)cc3Cl)c(C(=O)NOCCO)cc21", "Potency": "inconclusive: 29.6 µM [activator, single point]"}, {"compound": "C[C@]1(c2nc3c(C(N)=O)cccc3[nH]2)CCCN1", "Potency": "inactive"}, {"compound": "Cn1cc(-c2ccc3nnc(C(F)(F)c4ccc5ncccc5c4)n3n2)cn1", "Potency": "inactive"}, {"compound": "CNC(=O)c1cc(Oc2ccc(NC(=O)Nc3ccc(Cl)c(C(F)(F)F)c3)c(F)c2)ccn1", "Potency": "inactive"}, {"compound": "C[C@]12CC[C@H](O)CC1=CC[C@@H]1[C@H]2CC[C@]2(C)C(c3cccnc3)=CC[C@H]12", "Potency": "inconclusive: 29.6 µM [activator, single point]"}, {"compound": "CCCCc1ccc(NS(=O)(=O)c2ccc(C)c(C(=O)N3CCN(c4cccc(C)c4C)CC3)c2)cc1", "Potency": "active: 20.9 µM"}, {"compound": "COc1ccc(-c2c(-c3ccc(O)cc3O)n[nH]c2C)cc1", "Potency": "inconclusive: 33.2 µM [activator, single point]"}, {"compound": "COc1nc(-c2ccc3c(c2)OCO3)n(-c2ccc(NC(=O)CSc3ccccc3)cc2)n1", "Potency": "inconclusive: 33.2 µM [activator, single point]"}, {"compound": "O=c1cc(N2CCOCC2)oc2c(-c3cccc4c3sc3ccccc34)cccc12", "Potency": "inconclusive: 5.26 µM [activator, full curve]"}, {"compound": "CN(C)Cc1ccc(-c2nc3cccc4c3n2CCNC4=O)cc1", "Potency": "inconclusive: 29.6 µM [activator, single point]"}, {"compound": "O=C(C=Cc1ccc(/C=C/C(=O)Nc2ccc(C3=NCCN3)cc2)cc1)Nc1ccc(C2=NCCN2)cc1", "Potency": "inactive"}, {"compound": "O=C(Nc1cc(Cl)cc2c1[nH]c1cnccc12)c1cccnc1", "Potency": "inconclusive: 23.5 µM [activator, single point]"}, {"compound": "CC(C)n1c(C=C[C@H](O)C[C@H](O)CC(=O)O)c(-c2ccc(F)cc2)c2ccccc21", "Potency": "inactive"}, {"compound": "COc1ccc2c(c1)CC[C@H]1[C@@H]2CC[C@]2(C)[C@@H](NCCCCCCN3C(=O)C=CC3=O)CC[C@H]12", "Potency": "inconclusive: 29.6 µM [activator, single point]"}, {"compound": "c1ccc(-c2nn3c(c2-c2ccnc4cc(OCCN5CCOCC5)ccc24)CCC3)nc1", "Potency": "inconclusive: 37.2 µM [activator, single point]"}, {"compound": "Cc1cc(-c2ccc(CC(=O)Nc3ccc(-c4cccnc4)cc3)cc2)ccn1", "Potency": "inconclusive: 26.4 µM [activator, single point]"}, {"compound": "CC(C)C[C@H](NC(=O)[C@H](CCc1ccccc1)NC(=O)CN1CCOCC1)C(=O)N[C@@H](Cc1ccccc1)C(=O)N[C@@H](CC(C)C)C(=O)[C@@]1(C)CO1", "Potency": "inconclusive: 0.0009 µM [activator]"}, {"compound": "CC(C)(C)C(=O)Oc1ccc2c(c1)nc(NC(=O)c1cccc([N+](=O)[O-])c1)n2CCCO", "Potency": "inactive"}, {"compound": "CC1(C)Cc2c(-c3ccccc3)c(-c3ccc(Cl)cc3)c(CC(=O)O)n2C1", "Potency": "inconclusive: 11.8 µM [activator, partial curve]"}, {"compound": "Nc1ncnc2nc(-c3ccc(N4CCOCC4)nc3)cc(-c3cccc(Br)c3)c12", "Potency": "inconclusive: 37.2 µM [activator, single point]"}, {"compound": "CCN(CCO)CCCC(C)Nc1ccnc2cc(Cl)ccc12", "note": "(stereo unspecified)", "Potency": "inactive"}, {"compound": "Cn1c2cc(S(C)=O)sc2c2cnn(Cc3cccc(N)c3)c(=O)c21", "note": "(stereo unspecified)", "Potency": "inactive"}, {"compound": "CC1(C)SCCN(S(=O)(=O)c2ccc(OCC#CCO)cc2)[C@@H]1C(=O)NO", "Potency": "inactive"}, {"compound": "CN(C)c1ccc(C2Nc3ccc4ccccc4c3C3=C2C(=O)CC(C)(C)C3)cc1Br", "note": "(stereo unspecified)", "Potency": "inactive"}, {"compound": "COc1ccc(CC2SC(=O)NC2=O)cc1C(=O)NCc1ccc(C(F)(F)F)cc1", "note": "(stereo unspecified)", "Potency": "inconclusive: 26.4 µM [activator, single point]"}]}, {"molecular_target": "Tyrosine-protein kinase Yes (Homo sapiens) (UniProt P07947)", "test": "qHTS for small molecule inhibitors of Yes1 kinase: Primary Screen (AID 686947); note: nearly all actives have a fitted effect of over 60% in size; note: potency is the fitted concentration of half-maximal effect", "details": "Yes1 kinase biochemical qHTS inhibition; series mostly up to 76.9 µM", "method_in_brief": "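In this qHTS format, inhibition is expressed relative to DMSO controls with enzyme (maximum) and without enzyme (minimum). The 60 min room-temperature reaction uses 0.1 mM ATP, with ADP detected by luminescence.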", "values": [{"compound": "CCCCc1ccc(NS(=O)(=O)c2ccc(C)c(C(=O)N3CCN(c4cccc(C)c4C)CC3)c2)cc1", "Potency": "inactive"}, {"compound": "O=c1cc(N2CCOCC2)oc2c(-c3cccc4c3sc3ccccc34)cccc12", "Potency": "inactive"}, {"compound": "CC(C)(C)C(=O)Oc1ccc2c(c1)nc(NC(=O)c1cccc([N+](=O)[O-])c1)n2CCCO", "Potency": "inconclusive: 61.3 µM [inhibitor, single point]"}, {"compound": "CC1(C)SCCN(S(=O)(=O)c2ccc(OCC#CCO)cc2)[C@@H]1C(=O)NO", "Potency": "inactive"}]}]}
